Measurements from the supplement of paper PMC8426693.
This is one part of the list.

Columns and labels:
Experiment in all cases: NMR binding call after quantification (hit when 2 of 3 NMR criteria are met) (binary (1 = binding, 0 = not binding)); higher = binding
Details in all cases: RNA concentration 10 µM; fragment concentration 200 µM; 293 K
[1] = tested on: SARS-CoV-2 5'-UTR RNA
[2] = tested on: SARS-CoV-2 5_SL1 RNA
[3] = tested on: SARS-CoV-2 5_SL1234 RNA
[4] = tested on: SARS-CoV-2 5_SL2+3 RNA
[5] = tested on: SARS-CoV-2 5_SL4 RNA
[6] = tested on: SARS-CoV-2 5_SL5 RNA
[7] = tested on: SARS-CoV-2 5_SL5a RNA
[8] = tested on: SARS-CoV-2 5_SL5b+c RNA
[9] = tested on: SARS-CoV-2 5_SL5stem RNA
[10] = tested on: SARS-CoV-2 5_SL6 RNA

Measured: NMR binding call

CS(=O)(=O)CC(O)c1ccccc1 (stereo not given)
0: all assays above

O=C(CN1CCCC1)Nc1cccc(Cl)c1
0: all assays above

Cc1nsc(N2CCOC(C)C2C)n1 (stereo not given)
0: all assays above

c1ccc(CCNc2nc3ccccc3[nH]2)cc1
1: [1]
0: all other assays above

CC1CNCCN1CCO (stereo not given)
0: all assays above

Cc1nc(-c2ccccc2)no1
0: all assays above

CC(N)C(=O)N1CCCCC1C (stereo not given)
0: all assays above

N#CCC(=O)Nc1ccc(Cl)cc1
0: all assays above

COC(=O)CNC(=O)C1CCCCC1
0: all assays above

CC1CN(C(=O)c2cnsn2)C(C)CO1 (stereo not given)
0: all assays above

CC(C)(C)NC(=O)Cn1ccc(C(F)(F)F)n1
0: all assays above

O=C(c1ccc2c(c1)OCO2)N1CCCCCC1
0: all assays above

CCc1ccc(C(=O)NCc2cnn(C)c2)s1
0: all assays above

CCc1nnc(NC(=O)C(F)(F)F)s1
0: all assays above

c1ccc(Nc2nncs2)cc1
0: all assays above

NC(=S)Nc1ccc(OC(F)(F)F)cc1
0: all assays above

CS(=O)(=O)NC1(C(=O)O)CCCCC1
0: all assays above

O=C(Nc1ccc(N2CCOCC2)cc1)C1CC1
0: all assays above

CCOC(=O)CN1CCCCC1
0: all assays above

OC1CCN(Cc2ccc(Cl)cc2)C1 (stereo not given)
0: all assays above

Compounds above with nitrogen in an aromatic ring:
Cc1nsc(N2CCOC(C)C2C)n1 (stereo not given)
0: all assays above

c1ccc(CCNc2nc3ccccc3[nH]2)cc1
1: [1]
0: all other assays above

Cc1nc(-c2ccccc2)no1
0: all assays above

CC1CN(C(=O)c2cnsn2)C(C)CO1 (stereo not given)
0: all assays above

CC(C)(C)NC(=O)Cn1ccc(C(F)(F)F)n1
0: all assays above

CCc1ccc(C(=O)NCc2cnn(C)c2)s1
0: all assays above

CCc1nnc(NC(=O)C(F)(F)F)s1
0: all assays above

c1ccc(Nc2nncs2)cc1
0: all assays above

(further entries)

CC(=O)Nc1ccc(-c2csc(N)n2)cc1
1: [1] | [6]
0: all other assays above

CNC(=O)c1ccc(CS(C)(=O)=O)cc1
0: all assays above

O=C(Nc1ccc(F)cc1F)Nn1cnnc1
0: all assays above

OCC1CCN(c2ncccn2)CC1
0: all assays above

CC(C)c1ccc(C(=O)Nc2nncs2)cc1
1: [6]
0: all other assays above

CC(=O)N1CCCC(O)(C(=O)O)C1 (stereo not given)
0: all assays above

CCC(CC)C(=O)Nc1ccccc1O
0: all assays above

CC(C)c1ccc(CN2CCC(O)CC2)cc1
0: all assays above

CCOC(=O)Nc1sccc1C(N)=O
0: all assays above

Cc1noc(CN2CCC(CO)CC2)n1
0: all assays above

CCOc1ccccc1N1CCNCC1.Cl
0: all assays above

CC1CN(S(=O)(=O)N(C)C(C)C)CCO1 (stereo not given)
0: all assays above

CC(=O)NCCN1CCCCCC1
0: all assays above

Cn1ccc(NCc2ccccc2)n1
0: all assays above

CCN(CC)S(=O)(=O)c1ccc(C)cc1
0: all assays above

Cl.O=C(O)CCN1CCCCC1
0: all assays above

CC(O)COc1cccc(F)c1 (stereo not given)
0: all assays above

Cc1cc(C)nc(NC(=O)Nc2ccccc2)c1
0: all assays above

Cc1cccc(C(=O)NC(C)C2CC2)n1 (stereo not given)
0: all assays above

An excerpt from above in order of length of the SMILES, low to high.
CC(O)COc1cccc(F)c1 (stereo not given)
0: all assays above

Cc1cccc(C(=O)NC(C)C2CC2)n1 (stereo not given)
0: all assays above

Cc1cc(C)nc(NC(=O)Nc2ccccc2)c1
0: all assays above

(list continues)

C1CC(Cc2nc(C3CC3)no2)CCN1
0: all assays above

Nc1ccc(S(=O)(=O)Nc2ccccn2)cc1
0: all assays above

CCc1csc(-c2c[nH]cn2)n1
0: all assays above

CC(C)n1cnc(S(N)(=O)=O)c1
0: all assays above

COc1cc(C(=O)O)cc(OC)c1OC
0: all assays above

COc1ccc(C(=O)Nc2ccccc2F)cc1
0: all assays above

COc1ccccc1N1CCN(CC#N)CC1
0: all assays above

CC(CO)Nc1ncc(Cl)cc1F (stereo not given)
0: all assays above

O=c1[nH]cc(N2CCOCC2)c(=O)[nH]1
0: all assays above

Cc1ccc(NC(=O)c2ccco2)cc1O
0: all assays above

CCOc1ccc(C(N)=O)cn1
0: all assays above

CS(=O)(=O)N1CCC(C(=O)NC2CC2)CC1
0: all assays above

COc1ccc(C)cc1NC(=O)CN.Cl
0: all assays above
